Source: the supplement of paper PMC6411743
± gives the standard deviation of the averaged measurements. This is a selection; strong and weak results do not stand in their true shares. Small differences around the control level are noise.

By UniProt entry, the sequences of proteins in these tests, tags left out. Where a name states a change or a piece, a line headed by the entry shows the natural chain unless it says otherwise.
UniProt P04075: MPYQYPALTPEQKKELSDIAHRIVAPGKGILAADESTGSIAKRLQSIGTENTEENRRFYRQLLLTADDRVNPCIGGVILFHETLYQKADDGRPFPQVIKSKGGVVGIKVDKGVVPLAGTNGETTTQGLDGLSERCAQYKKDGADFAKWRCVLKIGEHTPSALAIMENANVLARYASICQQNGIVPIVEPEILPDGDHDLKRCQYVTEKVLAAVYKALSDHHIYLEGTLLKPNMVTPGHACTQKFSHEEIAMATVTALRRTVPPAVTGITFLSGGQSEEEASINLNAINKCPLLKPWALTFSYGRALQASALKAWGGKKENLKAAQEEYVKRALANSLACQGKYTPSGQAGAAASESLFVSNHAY
UniProt P00813: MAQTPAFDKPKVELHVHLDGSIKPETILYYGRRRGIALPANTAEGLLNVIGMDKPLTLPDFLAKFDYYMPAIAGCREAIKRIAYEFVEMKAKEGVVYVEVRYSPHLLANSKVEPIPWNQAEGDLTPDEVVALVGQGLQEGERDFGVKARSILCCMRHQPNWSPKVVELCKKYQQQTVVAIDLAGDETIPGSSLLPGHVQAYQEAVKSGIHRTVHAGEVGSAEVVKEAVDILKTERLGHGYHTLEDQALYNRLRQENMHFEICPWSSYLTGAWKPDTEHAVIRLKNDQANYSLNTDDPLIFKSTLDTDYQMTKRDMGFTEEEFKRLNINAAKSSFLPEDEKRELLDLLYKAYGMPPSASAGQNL
UniProt P08236: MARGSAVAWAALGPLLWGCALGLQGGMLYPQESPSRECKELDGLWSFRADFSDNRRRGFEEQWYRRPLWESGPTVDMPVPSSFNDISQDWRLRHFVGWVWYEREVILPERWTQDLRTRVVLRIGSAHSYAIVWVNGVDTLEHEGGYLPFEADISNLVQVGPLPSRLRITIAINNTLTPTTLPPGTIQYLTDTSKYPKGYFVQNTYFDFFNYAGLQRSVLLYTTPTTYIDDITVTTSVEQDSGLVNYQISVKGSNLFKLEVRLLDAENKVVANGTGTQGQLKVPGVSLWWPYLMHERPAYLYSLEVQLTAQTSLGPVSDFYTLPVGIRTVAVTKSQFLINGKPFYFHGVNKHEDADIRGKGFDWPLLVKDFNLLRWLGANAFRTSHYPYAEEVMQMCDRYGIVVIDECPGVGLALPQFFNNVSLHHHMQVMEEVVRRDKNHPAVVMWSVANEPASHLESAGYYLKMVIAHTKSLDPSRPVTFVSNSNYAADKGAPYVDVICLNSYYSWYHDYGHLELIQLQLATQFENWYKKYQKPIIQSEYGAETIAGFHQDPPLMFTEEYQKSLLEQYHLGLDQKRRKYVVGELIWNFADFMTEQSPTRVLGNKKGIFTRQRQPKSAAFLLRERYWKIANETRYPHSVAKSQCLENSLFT
UniProt P14625, whole entry: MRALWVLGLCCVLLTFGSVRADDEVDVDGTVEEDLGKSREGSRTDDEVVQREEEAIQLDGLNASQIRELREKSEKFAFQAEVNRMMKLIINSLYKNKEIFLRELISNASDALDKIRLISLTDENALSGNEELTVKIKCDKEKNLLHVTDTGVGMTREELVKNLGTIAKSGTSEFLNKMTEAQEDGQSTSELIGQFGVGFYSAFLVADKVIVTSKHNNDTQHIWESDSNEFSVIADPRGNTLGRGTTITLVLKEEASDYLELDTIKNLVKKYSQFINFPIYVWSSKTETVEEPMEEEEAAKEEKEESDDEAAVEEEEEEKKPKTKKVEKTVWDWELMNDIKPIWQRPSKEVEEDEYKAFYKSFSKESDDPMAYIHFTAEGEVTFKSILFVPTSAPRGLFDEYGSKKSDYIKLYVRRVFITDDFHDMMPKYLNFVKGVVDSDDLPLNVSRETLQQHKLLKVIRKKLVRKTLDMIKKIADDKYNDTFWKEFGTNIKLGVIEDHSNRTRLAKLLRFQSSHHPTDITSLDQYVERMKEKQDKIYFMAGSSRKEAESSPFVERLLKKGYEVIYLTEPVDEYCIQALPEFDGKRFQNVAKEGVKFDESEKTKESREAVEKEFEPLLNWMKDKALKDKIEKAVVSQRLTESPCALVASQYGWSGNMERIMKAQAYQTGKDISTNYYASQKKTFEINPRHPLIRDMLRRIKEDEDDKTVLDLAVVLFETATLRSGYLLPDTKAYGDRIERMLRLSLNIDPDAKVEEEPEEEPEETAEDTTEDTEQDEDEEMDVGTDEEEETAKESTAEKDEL
UniProt P14324: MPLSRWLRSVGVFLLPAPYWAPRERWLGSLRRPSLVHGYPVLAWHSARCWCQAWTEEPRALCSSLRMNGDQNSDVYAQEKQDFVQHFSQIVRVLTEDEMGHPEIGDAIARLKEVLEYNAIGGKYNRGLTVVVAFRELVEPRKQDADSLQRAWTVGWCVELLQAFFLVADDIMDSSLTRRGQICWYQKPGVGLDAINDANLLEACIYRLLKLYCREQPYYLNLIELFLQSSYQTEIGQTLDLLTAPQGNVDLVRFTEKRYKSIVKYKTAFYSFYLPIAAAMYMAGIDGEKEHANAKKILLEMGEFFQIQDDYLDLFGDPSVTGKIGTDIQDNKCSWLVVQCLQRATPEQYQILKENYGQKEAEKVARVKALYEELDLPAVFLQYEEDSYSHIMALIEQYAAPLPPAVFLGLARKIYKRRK
UniProt P05198, whole entry: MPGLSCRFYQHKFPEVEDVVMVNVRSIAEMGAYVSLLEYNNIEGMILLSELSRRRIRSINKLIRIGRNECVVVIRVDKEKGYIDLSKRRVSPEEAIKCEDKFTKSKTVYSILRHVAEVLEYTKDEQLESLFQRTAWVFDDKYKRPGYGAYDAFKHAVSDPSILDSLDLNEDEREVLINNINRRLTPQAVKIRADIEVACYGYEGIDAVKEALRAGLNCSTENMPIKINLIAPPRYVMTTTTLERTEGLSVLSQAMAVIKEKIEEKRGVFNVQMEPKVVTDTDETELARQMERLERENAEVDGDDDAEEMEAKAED
UniProt P15813: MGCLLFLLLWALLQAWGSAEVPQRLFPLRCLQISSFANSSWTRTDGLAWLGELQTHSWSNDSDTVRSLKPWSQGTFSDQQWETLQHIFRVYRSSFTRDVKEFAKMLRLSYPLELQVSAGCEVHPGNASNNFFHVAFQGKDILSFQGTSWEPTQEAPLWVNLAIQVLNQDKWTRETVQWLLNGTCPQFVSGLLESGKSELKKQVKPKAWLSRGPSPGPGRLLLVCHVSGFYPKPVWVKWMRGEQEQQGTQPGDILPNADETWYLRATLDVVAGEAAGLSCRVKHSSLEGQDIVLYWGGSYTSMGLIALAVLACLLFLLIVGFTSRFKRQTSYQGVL
UniProt P00374: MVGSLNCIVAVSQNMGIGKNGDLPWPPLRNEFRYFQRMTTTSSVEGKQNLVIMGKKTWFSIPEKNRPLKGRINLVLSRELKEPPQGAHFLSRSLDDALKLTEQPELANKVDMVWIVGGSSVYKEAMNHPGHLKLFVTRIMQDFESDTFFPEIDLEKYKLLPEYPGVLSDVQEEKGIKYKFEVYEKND
UniProt O95857: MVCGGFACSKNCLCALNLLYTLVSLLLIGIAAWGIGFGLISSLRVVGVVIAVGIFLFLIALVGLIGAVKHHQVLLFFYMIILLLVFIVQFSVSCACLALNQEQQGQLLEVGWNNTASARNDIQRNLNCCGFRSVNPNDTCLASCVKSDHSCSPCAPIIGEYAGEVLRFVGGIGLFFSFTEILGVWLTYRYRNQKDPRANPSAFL
UniProt P10586, whole entry: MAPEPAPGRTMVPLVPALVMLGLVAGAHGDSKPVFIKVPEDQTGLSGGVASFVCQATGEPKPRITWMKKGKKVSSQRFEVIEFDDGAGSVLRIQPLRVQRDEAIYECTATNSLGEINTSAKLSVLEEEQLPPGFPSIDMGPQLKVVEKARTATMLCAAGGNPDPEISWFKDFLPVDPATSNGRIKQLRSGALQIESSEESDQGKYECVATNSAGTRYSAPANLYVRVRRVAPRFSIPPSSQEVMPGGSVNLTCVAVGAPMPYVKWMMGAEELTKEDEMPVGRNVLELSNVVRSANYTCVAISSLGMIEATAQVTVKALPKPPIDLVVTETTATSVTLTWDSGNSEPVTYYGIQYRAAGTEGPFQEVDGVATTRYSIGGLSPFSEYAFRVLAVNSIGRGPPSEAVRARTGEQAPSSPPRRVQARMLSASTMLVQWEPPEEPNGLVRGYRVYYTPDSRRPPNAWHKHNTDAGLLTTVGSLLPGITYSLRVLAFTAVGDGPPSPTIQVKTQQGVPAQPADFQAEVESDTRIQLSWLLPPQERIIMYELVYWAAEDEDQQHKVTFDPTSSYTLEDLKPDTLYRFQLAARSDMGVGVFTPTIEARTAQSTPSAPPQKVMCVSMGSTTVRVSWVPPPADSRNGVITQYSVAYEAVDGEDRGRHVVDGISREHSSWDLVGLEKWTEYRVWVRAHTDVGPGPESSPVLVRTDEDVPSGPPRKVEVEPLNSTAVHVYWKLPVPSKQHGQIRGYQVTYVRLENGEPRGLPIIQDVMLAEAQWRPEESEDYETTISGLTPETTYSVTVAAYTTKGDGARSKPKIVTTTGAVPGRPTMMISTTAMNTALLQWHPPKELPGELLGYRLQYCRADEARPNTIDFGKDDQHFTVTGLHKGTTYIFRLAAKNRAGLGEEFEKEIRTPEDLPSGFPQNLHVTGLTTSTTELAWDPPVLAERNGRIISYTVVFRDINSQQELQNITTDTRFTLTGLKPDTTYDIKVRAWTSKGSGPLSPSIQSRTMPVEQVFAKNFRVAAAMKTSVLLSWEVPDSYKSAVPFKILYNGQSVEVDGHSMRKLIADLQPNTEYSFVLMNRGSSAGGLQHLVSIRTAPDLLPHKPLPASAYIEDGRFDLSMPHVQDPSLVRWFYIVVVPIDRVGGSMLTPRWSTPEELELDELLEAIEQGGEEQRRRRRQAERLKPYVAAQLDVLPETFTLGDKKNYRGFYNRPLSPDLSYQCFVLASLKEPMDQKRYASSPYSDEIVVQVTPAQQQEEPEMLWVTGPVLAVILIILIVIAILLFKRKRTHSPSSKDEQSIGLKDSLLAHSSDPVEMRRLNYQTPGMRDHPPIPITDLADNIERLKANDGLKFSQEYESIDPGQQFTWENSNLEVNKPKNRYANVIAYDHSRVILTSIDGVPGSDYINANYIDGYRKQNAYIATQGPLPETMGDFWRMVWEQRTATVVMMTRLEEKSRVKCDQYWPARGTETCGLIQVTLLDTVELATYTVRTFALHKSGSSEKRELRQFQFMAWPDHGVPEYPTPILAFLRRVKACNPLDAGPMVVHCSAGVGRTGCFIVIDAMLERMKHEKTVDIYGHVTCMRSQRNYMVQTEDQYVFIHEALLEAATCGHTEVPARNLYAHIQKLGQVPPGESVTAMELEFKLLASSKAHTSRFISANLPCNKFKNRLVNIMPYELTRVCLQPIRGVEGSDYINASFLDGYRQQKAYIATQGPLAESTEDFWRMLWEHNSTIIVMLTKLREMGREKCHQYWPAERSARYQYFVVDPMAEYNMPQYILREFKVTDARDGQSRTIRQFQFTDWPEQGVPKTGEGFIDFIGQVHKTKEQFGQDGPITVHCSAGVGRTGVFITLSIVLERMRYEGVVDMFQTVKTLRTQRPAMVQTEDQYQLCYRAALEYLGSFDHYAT
UniProt O96033: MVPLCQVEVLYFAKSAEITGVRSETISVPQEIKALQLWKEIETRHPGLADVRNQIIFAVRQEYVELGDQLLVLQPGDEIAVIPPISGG
UniProt O95816: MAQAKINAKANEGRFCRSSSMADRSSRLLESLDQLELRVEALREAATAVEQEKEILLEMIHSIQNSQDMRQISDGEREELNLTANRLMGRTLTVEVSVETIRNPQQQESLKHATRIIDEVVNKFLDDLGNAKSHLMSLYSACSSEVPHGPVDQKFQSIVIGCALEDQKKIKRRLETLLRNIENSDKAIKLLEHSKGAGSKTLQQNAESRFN
UniProt P10619: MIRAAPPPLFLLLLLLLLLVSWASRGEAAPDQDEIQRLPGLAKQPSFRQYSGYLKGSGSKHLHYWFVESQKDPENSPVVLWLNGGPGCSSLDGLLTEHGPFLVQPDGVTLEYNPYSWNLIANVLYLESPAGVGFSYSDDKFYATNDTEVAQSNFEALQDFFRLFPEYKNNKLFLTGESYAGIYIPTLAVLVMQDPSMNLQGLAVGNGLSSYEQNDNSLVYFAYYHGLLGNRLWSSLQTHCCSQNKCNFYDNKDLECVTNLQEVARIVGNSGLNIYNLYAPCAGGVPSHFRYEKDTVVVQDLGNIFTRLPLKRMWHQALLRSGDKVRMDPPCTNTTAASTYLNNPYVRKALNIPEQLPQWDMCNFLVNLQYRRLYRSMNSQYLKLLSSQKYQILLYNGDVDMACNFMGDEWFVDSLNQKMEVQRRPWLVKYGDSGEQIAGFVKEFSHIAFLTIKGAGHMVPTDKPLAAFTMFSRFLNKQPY
UniProt P07738: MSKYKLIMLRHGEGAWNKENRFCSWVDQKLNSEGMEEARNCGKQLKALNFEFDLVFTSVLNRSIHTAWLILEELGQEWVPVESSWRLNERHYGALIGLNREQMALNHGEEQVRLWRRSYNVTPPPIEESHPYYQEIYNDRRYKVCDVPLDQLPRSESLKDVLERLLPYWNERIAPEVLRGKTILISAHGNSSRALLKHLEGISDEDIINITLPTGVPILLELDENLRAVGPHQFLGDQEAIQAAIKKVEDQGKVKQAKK

Compound: Nc1ncnc2c1ncn2[C@@H]1O[C@H](COP(=O)(O)OP(=O)(O)NP(=O)(O)O)[C@@H](O)[C@H]1O [adenylyl imidodiphosphate]
Experiment: NP40-soluble protein abundance relative to vehicle (solubility fold change) (ratio); higher = more soluble protein in presence of AMP-PNP
How it was run: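 Values are fold changes against the detergent-processed vehicle, based on vsn-normalised intensities. Jurkat crude lysate was treated at eight concentrations from 0.1 to 10 mM (10 min at room temperature, then 3 min at 37 °C), solubilised with 0.8% NP40 and benzonase, ultracentrifuged and analysed by TMT-labelled LC-MS/MS over three independent experiments.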

Target	NP40-soluble protein abundance (concentration: 0.1mM)	NP40-soluble protein abundance (concentration: 0.5mM)
IGLL1 (UniProt P15814)	1.04 ± 0.046	1.02 ± 0.051
GNAI2 (UniProt P04899)	1.01 ± 0.066	1.01 ± 0.069
UniProt P04424 and related entries	0.999 ± 0.034	0.963 ± 0.015
FUCA1 (UniProt P04066)	0.994 ± 0.018	0.99 ± 0.046
UniProt P05165 and related entries	1.03 ± 0.042	0.998 ± 0.032
HPRT1 (UniProt P00492)	1.03 ± 0.031	0.998 ± 0.087
UniProt P11388 and related entries	1.51 ± 0.028	1.65 ± 0.051
UniProt P09564	1.02 ± 0.033	1.06 ± 0.06
UniProt P15056 and related entries	1.04 ± 0.033	1.01 ± 0.036
RPS2 (UniProt P15880)	1.02 ± 0.035	0.992 ± 0.031
UniProt P14543	1.04 ± 0.049	0.972 ± 0.078
DBT (UniProt P11182)	1.01 ± 0.13	1.01 ± 0.075
UniProt P01116-2	1.01 ± 0.028	0.97 ± 0.018
CKB (UniProt P12277)	0.9956 ± 0.0049	0.994 ± 0.03
CTSG (UniProt P08311)	1.02 ± 0.014	1.01 ± 0.025
DLD (UniProt P09622)	1.03 ± 0.027	1.01 ± 0.025
MYL6B (UniProt P14649)	1.01 ± 0.023	1.04 ± 0.073
UniProt P04075 and related entries	1.01 ± 0.057	1.05 ± 0.081
GLUL (UniProt P15104)	0.966 ± 0.014	0.981 ± 0.05
ADA (UniProt P00813)	0.992 ± 0.012	0.9974 ± 0.009
UniProt P04844 and related entries	0.993 ± 0.031	0.993 ± 0.096
UniProt P00390 and related entries	1 ± 0.024	0.994 ± 0.044
UniProt P11586 and related entries	0.9953 ± 0.0066	1 ± 0.016
UniProt P14859 and related entries	0.9958 ± 0.0059	1.03 ± 0.037

Target	NP40-soluble protein abundance (concentration: 0.1mM)	NP40-soluble protein abundance (concentration: 0.5mM)
AKR1B1 (UniProt P15121)	0.997 ± 0.022	1 ± 0.055
CAT (UniProt P04040)	1.02 ± 0.015	0.994 ± 0.013
SRF (UniProt P11831)	0.973 ± 0.013	1.02 ± 0.021
SSB (UniProt P05455)	0.995 ± 0.027	1.02 ± 0.052
STMN1 (UniProt P16949)	0.962 ± 0.061	0.996 ± 0.067
TOMM40 (UniProt O96008)	0.981 ± 0.03	1.03 ± 0.04
UniProt P08236 and related entries	1.02 ± 0.016	0.976 ± 0.024
FBXO45 (UniProt P0C2W1)	1.01 ± 0.017	0.998 ± 0.055
ADH5 (UniProt P11766)	1 ± 0.032	0.998 ± 0.042
UniProt P06730 and related entries	1.08 ± 0.051	1.01 ± 0.031
CSTB (UniProt P04080)	0.939 ± 0.043	0.974 ± 0.045
XRCC6 (UniProt P12956)	0.78 ± 0.16	1.01 ± 0.066
MTHFD2 (UniProt P13995)	1.02 ± 0.027	1.02 ± 0.025
UniProt P06756 and related entries	0.975 ± 0.019	0.985 ± 0.015
ANXA3 (UniProt P12429)	0.99 ± 0.011	1.014 ± 0.0013
UniProt P00491	1.05 ± 0.025	0.996 ± 0.07
UniProt P05771 and related entries	1.02 ± 0.029	1.046 ± 0.0082
HSP90B1 (UniProt P14625)	0.982 ± 0.021	1.03 ± 0.032
PRKAR1A (UniProt P10644)	1.04 ± 0.032	1.01 ± 0.029
H1F0 (UniProt P07305)	1.02 ± 0.025	1.06 ± 0.016
UniProt P08651 and related entries	1.05 ± 0.03	1.02 ± 0.044
LCP1 (UniProt P13796)	0.942 ± 0.07	0.945 ± 0.11
LATS1 (UniProt O95835)	1.008 ± 0.0042	1 ± 0.013
UniProt P07437	1 ± 0.021	0.988 ± 0.035

Pulled one by one from the entries so far:
Target	NP40-soluble protein abundance (concentration: 0.1mM)	NP40-soluble protein abundance (concentration: 0.5mM)
CSTB (UniProt P04080)	0.939 ± 0.043	0.974 ± 0.045
H1F0 (UniProt P07305)	1.02 ± 0.025	1.06 ± 0.016
STMN1 (UniProt P16949)	0.962 ± 0.061	0.996 ± 0.067

Remaining list, next part.

Target	NP40-soluble protein abundance (concentration: 0.1mM)	NP40-soluble protein abundance (concentration: 0.5mM)
CYC1 (UniProt P08574)	1.01 ± 0.034	1.04 ± 0.056
UniProt P08621 and related entries	1.028 ± 0.0096	1.01 ± 0.021
UniProt P00338-2|P00338-3	0.982 ± 0.12	0.862 ± 0.18
UniProt O95782 and related entries	1.05 ± 0.021	1.04 ± 0.039
GALT (UniProt P07902)	0.986 ± 0.02	0.99 ± 0.058
UniProt P14324 and related entries	1.02 ± 0.017	1.02 ± 0.044
UniProt P16435 and related entries	1.01 ± 0.029	1 ± 0.03
PRPS2 (UniProt P11908)	0.997 ± 0.027	0.922 ± 0.06
UniProt P04183 and related entries	0.991 ± 0.029	0.99 ± 0.02
CAPN1 (UniProt P07384)	1.01 ± 0.049	0.99 ± 0.061
UniProt P15170-2|P15170-3|H3BSV8	0.979 ± 0.013	1.008 ± 0.0058
UniProt P13674-2|P13674	0.995 ± 0.03	0.998 ± 0.013
HIST1H1C (UniProt P16403)	0.987 ± 0.038	1.09 ± 0.12
FDX1 (UniProt P10109)	0.943 ± 0.014	0.954 ± 0.047
ZBTB48 (UniProt P10074)	0.977 ± 0.027	0.987 ± 0.049
UniProt P06239 and related entries	1.01 ± 0.02	1.04 ± 0.011
EIF2S1 (UniProt P05198)	1.01 ± 0.036	1.01 ± 0.049
UniProt P09471-2	0.982 ± 0.015	0.9327 ± 0.0014
UniProt O95758-6|O95758-1	0.993 ± 0.062	0.997 ± 0.0066
HCLS1 (UniProt P14317)	0.961 ± 0.032	1.05 ± 0.066
COX5B (UniProt P10606)	0.979 ± 0.036	0.977 ± 0.048
UniProt P16591 and related entries	0.998 ± 0.02	0.948 ± 0.081
SLC25A4 (UniProt P12235)	1.01 ± 0.044	0.996 ± 0.081
UniProt P12814 and related entries	0.9839 ± 0.0065	1.03 ± 0.034

Target	NP40-soluble protein abundance (concentration: 0.1mM)	NP40-soluble protein abundance (concentration: 0.5mM)
RALA (UniProt P11233)	0.992 ± 0.018	1.02 ± 0.023
UniProt P05023 and related entries	1.01 ± 0.056	1.03 ± 0.054
Fyn (UniProt P06241)	1.01 ± 0.042	0.999 ± 0.1
UniProt P15813	0.995 ± 0.024	1 ± 0.013
ATXN1L (UniProt P0C7T5)	1.02 ± 0.024	1.03 ± 0.021
UniProt P00374 and related entries	1 ± 0.062	0.995 ± 0.04
UniProt P13929 and related entries	0.985 ± 0.042	1.01 ± 0.044
UniProt O95747	1.01 ± 0.041	0.994 ± 0.027
UniProt P12955 and related entries	0.997 ± 0.036	1.01 ± 0.038
TSPAN13 (UniProt O95857)	0.993 ± 0.013	0.996 ± 0.023
SNRPA (UniProt P09012)	1.007 ± 0.0071	1.02 ± 0.018
UniProt O95822-2|O95822	1.07 ± 0.11	0.982 ± 0.08
APRT (UniProt P07741)	1.04 ± 0.021	1.02 ± 0.14
UBL4A (UniProt P11441)	1.016 ± 0.0058	1.038 ± 0.0024
UniProt P05026 and related entries	0.98 ± 0.039	1.05 ± 0.095
ACAA1 (UniProt P09110)	0.9797 ± 0.0066	0.9896 ± 0.0088
UniProt P00441 and related entries	0.826 ± 0.16	1.08 ± 0.056
MIF (UniProt P14174)	1.04 ± 0.047	1.02 ± 0.097
UniProt P10586 and related entries	1.01 ± 0.033	0.973 ± 0.029
P0C0S5 and related entries (UniProt Q71UI9+P0C0S5)	0.989 ± 0.069	0.989 ± 0.12
OAT (UniProt P04181)	1.03 ± 0.038	1.03 ± 0.014
UniProt P16278 and related entries	0.989 ± 0.014	1.02 ± 0.028
ALAS1 (UniProt P13196)	0.992 ± 0.0094	1 ± 0.036
O96007 and related entries (UniProt O96033+O96007)	0.997 ± 0.037	1.011 ± 0.0042

Target	NP40-soluble protein abundance (concentration: 0.1mM)	NP40-soluble protein abundance (concentration: 0.5mM)
EPRS (UniProt P07814)	1.02 ± 0.037	1.02 ± 0.067
UniProt P14151 and related entries	1 ± 0.035	1.05 ± 0.07
BAG2 (UniProt O95816)	1.13 ± 0.031	1.17 ± 0.044
ITGA5 (UniProt P08648)	0.997 ± 0.03	0.999 ± 0.024
IGF2R (UniProt P11717)	0.986 ± 0.017	1.02 ± 0.061
UniProt P10619 and related entries	1.02 ± 0.047	1.01 ± 0.018
LDHB (UniProt P07195)	0.985 ± 0.052	0.975 ± 0.06
UniProt P11177 and related entries	1.07 ± 0.094	1.04 ± 0.093
GLA (UniProt P06280)	0.991 ± 0.047	1.01 ± 0.048
SNRPA1 (UniProt P09661)	1.02 ± 0.045	1.06 ± 0.037
P00403 and related entries (UniProt Q8IVS2)	1.04 ± 0.049	0.975 ± 0.16
UniProt P11234 and related entries	0.9811 ± 0.0053	1.02 ± 0.025
UniProt P04234	1.028 ± 0.0075	1 ± 0.027
ENO2 (UniProt P09104)	0.989 ± 0.027	1.02 ± 0.031
UniProt O96005 and related entries	1.01 ± 0.085	1.02 ± 0.074
DDAH2 (UniProt O95865)	1.02 ± 0.017	1.02 ± 0.025
UniProt P12931 and related entries	1.03 ± 0.051	1.02 ± 0.054
TYMS (UniProt P04818)	1.01 ± 0.057	0.971 ± 0.11
UniProt P10747 and related entries	1 ± 0.011	1.01 ± 0.034
HIST1H1B (UniProt P16401)	1.02 ± 0.048	1.08 ± 0.065
ITGA4 (UniProt P13612)	1 ± 0.02	1.01 ± 0.013
HNRNPL (UniProt P14866)	1.04 ± 0.06	1.05 ± 0.082
BPGM (UniProt P07738)	1.05 ± 0.12	0.983 ± 0.02
UniProt P10155	1.02 ± 0.047	0.965 ± 0.071

Look-ups from above:
Under NP40-soluble protein abundance (concentration: 0.5mM), ITGA4 (UniProt P13612) is entered as 1.01 ± 0.013
Under NP40-soluble protein abundance (concentration: 0.5mM), HNRNPL (UniProt P14866) is entered as 1.05 ± 0.082
Under NP40-soluble protein abundance (concentration: 0.5mM), SNRPA1 (UniProt P09661) is entered as 1.06 ± 0.037
Under NP40-soluble protein abundance (concentration: 0.1mM), ENO2 (UniProt P09104) is entered as 0.989 ± 0.027
Under NP40-soluble protein abundance (concentration: 0.5mM), UniProt P10619 and related entries is entered as 1.01 ± 0.018
Under NP40-soluble protein abundance (concentration: 0.5mM), UniProt P12931 and related entries is entered as 1.02 ± 0.054
